Laboratory results: PubChem BioAssay AID493014 (National Center for Advancing Translational Sciences (NCATS), 2011)
Values joined by “and” are separate entries in the source; they are usually repeats but may differ in a detail not shown here. Identical values can stand only once. This is one part of the list. These are further read-outs of the screen, such as a control signal, another cell line or another target. No call is given for them. The list favours compounds with an active or inconclusive main result. The note in brackets gives the kind of curve behind each potency; many fits are weak.

Assay: qHTS Assay to Find Inhibitors of Chronic Active B-Cell Receptor Signaling
Conditions: ABC-DLBCL IkBa-CBG/CBR reporter, luminescence ratio (green luciferase fused to IkBa over red control in TMD8 lymphoma cells), 4 h
Procedure, shortened: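 TMD8 human ABC-DLBCL cells with doxycycline-inducible IκBα–green luciferase fusion and unfused red luciferase, in 0.5% FBS medium; compounds up to 46 uM, 4 h at 37C. Green/red luminescence ratio, filter-overlap corrected, fitted to concentration-response curves.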

[1] = measured here: CBR red luminescence, cell number

N=c1n(CCc2ccccc2)c2ccccc2n1Cc1ccccc1F
AC50 [1]: 20.6 µM [falling, single point]

O=C(CN1C(=O)NC2(CCOc3ccccc32)C1=O)c1ccc[nH]1 (configuration not stated)
AC50 [1]: 20.6 µM [rising, single point]

CC(C)(Oc1ccc(Cl)cc1)C(=O)Nc1ncccn1
AC50 [1]: 35.5 µM [falling, single point]

Cc1ccc(-n2c(Cn3nc(C(F)F)cc3C(F)F)n[nH]c2=S)cc1
AC50 [1]: 3.26 µM [rising, partial curve, poor fit]

O=C(Nc1ccon1)c1csc2ccccc12
AC50 [1]: 1.46 µM [falling, full curve, poor fit]

Cc1ccsc1C(=O)NNC(=S)NC1CCCCC1
AC50 [1]: 10 µM [falling, partial curve]

COc1cccc(-c2nc(CS(=O)CC(=O)NCCCOC(C)C)c(C)o2)c1 (configuration not stated)
AC50 [1]: 29.1 µM [rising, single point]

O=C(COC(=O)c1ccc(F)cc1)NCCCc1ccccc1
AC50 [1]: 3.98 µM [falling, single point]

c1ccc(OCCSc2nnnn2C2CCCCC2)cc1
AC50 [1]: 2.24 µM [rising, full curve, poor fit]

COc1cc(NC(=O)CCn2c(=S)oc3ccccc32)cc(OC)c1OC
AC50 [1]: 1.58 µM [rising, partial curve, poor fit]

Cc1ccccc1Nc1nc(-c2sc(NC(=O)c3ccco3)nc2C)cs1
AC50 [1]: 18.4 µM [falling, partial curve, poor fit]

CN(C(=S)Nc1ccc(F)cc1)C(c1ccccc1)c1ccccc1
AC50 [1]: 35.5 µM [falling, single point]

O=C(COc1cccnc1[N+](=O)[O-])Nc1cccc(Br)c1
AC50 [1]: 4.61 µM [rising, partial curve, poor fit]

COc1cc(OC)cc(C(=O)Nc2cccc(N3CCCC3)c2)c1
AC50 [1]: 11.2 µM [falling, partial curve, poor fit]

O=C(CSc1nnc(-c2ccncc2)n1Cc1ccco1)Nc1nc(-c2ccccc2)cs1
AC50 [1]: 0.82 µM [falling, full curve, poor fit]

O=C1NNC(=O)C2C3C=CC(C4CC34)C12 (configuration not stated)
AC50 [1]: 29.1 µM [rising, single point]

CC(/C=N/NC(=O)c1cccnc1)=C\c1ccco1
AC50 [1]: 3.66 µM [falling, partial curve, poor fit]

CCOC(=O)/C=C/C(=O)OCC(=O)NC(c1ccccc1)c1ccccc1
AC50 [1]: 18.4 µM [falling, partial curve]

C=CCN1C(=O)C(Cc2cccc(C)c2)SC1=Nc1ccc(C(=O)O)cc1 (configuration not stated)
AC50 [1]: 29.1 µM [falling, single point]
AC50 (measured here: IkBa-CBG green luminescence): 20.6 µM [rising, partial curve, poor fit]

CCC(C)(C)NC(=O)C(c1ccc(C)cc1)N(Cc1ccco1)C(=O)Cn1nnc2ccccc21 (configuration not stated)
AC50 [1]: 29.1 µM [rising, single point]

NC(=O)c1ccccc1OCC(=O)NS(=O)(=O)c1ccc(Cl)cc1
AC50 [1]: 32.6 µM [falling, single point]

O=C(Nc1cccc(-c2cccc(Cl)c2)c1)C1CCN(Cc2ccccn2)CC1
AC50 [1]: 17.8 µM [falling, single point]

CCCCNC(=O)c1c[nH]c2ccc(S(=O)(=O)Nc3ccc(OCC)cc3)cc2c1=O
AC50 [1]: 22.4 µM [rising, single point]

Cc1cc(NC(=O)c2cccc(Oc3ccccc3)c2)n[nH]1
AC50 [1]: 14.1 µM [falling, single point]

Cc1cc(C(=O)N/N=C/c2cccc(OC(=O)c3ccco3)c2)n[nH]1
AC50 [1]: 12.6 µM [falling, partial curve]

C=C1C(C(=O)Nc2ccccc2)C1C(=O)Nc1ccccc1 (configuration not stated)
AC50 [1]: 3.55 µM [rising, partial curve, poor fit]

CN(Cc1ccco1)c1ncnc2ccc(-c3ccc4c(c3)OCO4)cc12
AC50 [1]: 1.84 µM [falling, partial curve, poor fit] and 23.1 µM [falling, single point]

CCSc1nnc(NC(=O)C(CC)(C(F)(F)F)C(F)(F)F)s1
AC50 [1]: 18.4 µM [falling, single point]

COc1ccc(CNc2ncnc3c2c(-c2ccccc2)cn3-c2ccccc2)cc1
AC50 [1]: 3.98 µM [rising, full curve, poor fit]

Fc1cccc(Cl)c1Cn1nnc2c(-n3ccnc3)ncnc21
AC50 [1]: 18.4 µM [falling, partial curve, poor fit]

O=C(O)c1cccc([N+](=O)[O-])c1C(=O)Nc1nc2ccccc2s1
AC50 [1]: 11.2 µM [falling, partial curve, poor fit]

CC(=O)c1ccc(NC(=O)CNCc2cccs2)cc1
AC50 [1]: 7.94 µM [rising, partial curve, poor fit]

Cc1ccc(Nc2nc(N/N=C/c3c[nH]c4ccccc34)nc(N3CCOCC3)n2)cc1
AC50 [1]: 6.51 µM [falling, full curve]

CCCc1cc(C(=O)NNC(=S)NC2CCCCC2)cs1
AC50 [1]: 3.55 µM [falling, partial curve, poor fit]

COc1ccc(-c2nc(CSCC(=O)N3CCC(C(N)=O)CC3)c(C)o2)cc1OC
AC50 [1]: 23.1 µM [rising, partial curve, poor fit]

Cc1nnc(SCC(=O)NCc2ccccc2F)c2nn(-c3ccc(Cl)cc3)c(C)c12
AC50 [1]: 6.31 µM [falling, single point]

Cc1cc(NC(=O)C2CCCCC2)n(-c2nc3ccccc3[nH]2)n1
AC50 [1]: 0.146 µM [falling, full curve, poor fit]

CCNc1nc2ccccc2[nH]1
AC50 [1]: 0.092 µM [falling, full curve, poor fit]

O=c1c2cc(-c3ccccc3)sc2ncn1/N=C/c1ccco1
AC50 [1]: 3.55 µM [rising, partial curve, poor fit]

CCCNC(=O)c1cc(-c2ccc(OC)cc2)on1
AC50 [1]: 23.1 µM [falling, partial curve, poor fit]

O=C1COc2ccc(C(=O)COC(=O)/C=C/c3cccc(F)c3)cc2N1
AC50 [1]: 10 µM [rising, partial curve]
